Measurements reported in publication PMC7819943, “Rice protein-binding microarrays: a tool to detect cis-acting elements near promoter regions in rice”.
Some of the results follow.

target: T1, OsSMF1 (Oryza sativa, UniProt Q6ZLB0 1-436); assay: protein-binding microarray (RPBM); PBS, 2% BSA, 51.3 ng/ul salmon testes DNA, 50 uM zinc acetate, 200 nM TF, 25 C, 1 h; high values mean tight binding; details: protein: recombinant; tags: N-terminal polyhistidine and DsRed monomer fusion (pET32a); chain copies: 2; label: CyDye5-dUTP incorporated in the synthesized complementary strand; 3' TTTTT single-stranded linker to array surface; dsDNA, one strand shown
T1 sequence: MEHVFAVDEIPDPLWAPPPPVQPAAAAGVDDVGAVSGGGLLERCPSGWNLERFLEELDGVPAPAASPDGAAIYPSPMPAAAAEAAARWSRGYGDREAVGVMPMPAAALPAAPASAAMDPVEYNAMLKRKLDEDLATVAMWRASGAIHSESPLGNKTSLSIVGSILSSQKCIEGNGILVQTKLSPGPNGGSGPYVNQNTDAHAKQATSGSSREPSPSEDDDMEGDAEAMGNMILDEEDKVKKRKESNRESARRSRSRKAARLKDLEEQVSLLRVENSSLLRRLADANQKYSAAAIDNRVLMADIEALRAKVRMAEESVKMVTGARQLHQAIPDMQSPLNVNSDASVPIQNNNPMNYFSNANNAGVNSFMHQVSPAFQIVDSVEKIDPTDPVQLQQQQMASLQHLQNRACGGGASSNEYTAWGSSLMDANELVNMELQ
Summary of the method: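 In PBS with 2% BSA, salmon testes DNA and 50 µM zinc acetate, 200 nM protein was incubated on a custom Agilent array at 25 °C for 1 h and then washed off. The array had been made double-stranded by primer extension with Cy5-dUTP and blocked with 2% BSA. The proteins were transcription factors fused N-terminally to polyhistidine and DsRed, expressed in E. coli BL21-CodonPlus and purified on Ni–NTA. The binding signal is per-feature fluorescence intensity (arbitrary units) from an Axon 4000B scanner.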

Row | Sequence | binding signal
1 | AACCCCTTTTGCTGAGCCTCTTCTAAGTGAACAGATTACTCGGAGTCACCTAGTGCAG | 3140 fluorescence intensity (a.u.)
2 | CGTGCATTTCAGCCGCTCTTGCCGTGCCACGCCCACTCCCCGGAGTCACCTAGTGCAG | 4410 fluorescence intensity (a.u.)
3 | TCACGTGTATATATGCCACCGTCACGCCTTCTCCAGGGCTCGGAGTCACCTAGTGCAG | 4800 fluorescence intensity (a.u.)
4 | CATCACAATACGTCAATATCACATCCGGATGACTAGGTAACGGAGTCACCTAGTGCAG | 4740 fluorescence intensity (a.u.)
5 | TTATTTGGATGTAAGTAGCTATATCATTTGTGTTAAGAATCGGAGTCACCTAGTGCAG | 30000 fluorescence intensity (a.u.)
6 | ACTTGATGTTGTCATATGATGGTTGCATGCTTGCATGTTTCGGAGTCACCTAGTGCAG | 3840 fluorescence intensity (a.u.)
7 | CGTGTATTTATTACTGACACGTGGATCCGATGATTACTGGCGGAGTCACCTAGTGCAG | 14800 fluorescence intensity (a.u.)
8 | TGAGCTTACACGTTTTGATACCTGTGATGTTCGAATAAACCGGAGTCACCTAGTGCAG | 3220 fluorescence intensity (a.u.)
9 | TTCTTCTTCTATTCCACGTCCACGTGTATGGCCAGGAGTTCGGAGTCACCTAGTGCAG | 16100 fluorescence intensity (a.u.)
10 | GGAAGCGCCAGCCAGCGCTCGCCGTTGTCACCTGTCACACCGGAGTCACCTAGTGCAG | 3480 fluorescence intensity (a.u.)
11 | TAAGGTACATCCATATGTTGTTCTTTTAATTTCTACGTGTCGGAGTCACCTAGTGCAG | 3320 fluorescence intensity (a.u.)
12 | ATGTGTTGATTTGTGTGTATGACTCAGCTTACTACTACATCGGAGTCACCTAGTGCAG | 10500 fluorescence intensity (a.u.)
13 | GATGGATGGATGGATCCCAAGTGGGCGACGTGGCTGCTTCCGGAGTCACCTAGTGCAG | 6010 fluorescence intensity (a.u.)
14 | ATCCCGCGCAAAAGCTGCGGCTCCACGCGCGCGCGTCATCCGGAGTCACCTAGTGCAG | 4070 fluorescence intensity (a.u.)
15 | TACGAGCTTCTCCTCCTCCGCTGGTCATCATCCTACCTGTCGGAGTCACCTAGTGCAG | 5560 fluorescence intensity (a.u.)
16 | TACTCTAGTATATCACGTTGATGATATCATGATACTTAAGCGGAGTCACCTAGTGCAG | 3500 fluorescence intensity (a.u.)
17 | TTGAACCAACACTATATCATACACCTAGTCACCTACTCCTCGGAGTCACCTAGTGCAG | 4770 fluorescence intensity (a.u.)
18 | CGCGCTCTCCGACAAGGTCGGCCAGCTCACGGCGCTCCGCCGGAGTCACCTAGTGCAG | 4180 fluorescence intensity (a.u.)
19 | GTGCATAAATTTATTAAAATAGAAAATTAATGCAGTGCCACGGAGTCACCTAGTGCAG | 4660 fluorescence intensity (a.u.)
20 | CCGTGCGCCGCACCGCGCCGCGCCACGTCGCGTGGGCCCGCGGAGTCACCTAGTGCAG | 4960 fluorescence intensity (a.u.)
21 | AGCCAAATCAGAGGCAACAATGTATGTAGCATGTTGTCCTCGGAGTCACCTAGTGCAG | 3590 fluorescence intensity (a.u.)

A different layout for some results above:
Row	Sequence	binding signal
1	AACCCCTTTTGCTGAGCCTCTTCTAAGTGAACAGATTACTCGGAGTCACCTAGTGCAG	3140 fluorescence intensity (a.u.)
2	CGTGCATTTCAGCCGCTCTTGCCGTGCCACGCCCACTCCCCGGAGTCACCTAGTGCAG	4410 fluorescence intensity (a.u.)
3	TCACGTGTATATATGCCACCGTCACGCCTTCTCCAGGGCTCGGAGTCACCTAGTGCAG	4800 fluorescence intensity (a.u.)
4	CATCACAATACGTCAATATCACATCCGGATGACTAGGTAACGGAGTCACCTAGTGCAG	4740 fluorescence intensity (a.u.)
5	TTATTTGGATGTAAGTAGCTATATCATTTGTGTTAAGAATCGGAGTCACCTAGTGCAG	30000 fluorescence intensity (a.u.)
6	ACTTGATGTTGTCATATGATGGTTGCATGCTTGCATGTTTCGGAGTCACCTAGTGCAG	3840 fluorescence intensity (a.u.)
7	CGTGTATTTATTACTGACACGTGGATCCGATGATTACTGGCGGAGTCACCTAGTGCAG	14800 fluorescence intensity (a.u.)
8	TGAGCTTACACGTTTTGATACCTGTGATGTTCGAATAAACCGGAGTCACCTAGTGCAG	3220 fluorescence intensity (a.u.)
9	TTCTTCTTCTATTCCACGTCCACGTGTATGGCCAGGAGTTCGGAGTCACCTAGTGCAG	16100 fluorescence intensity (a.u.)
10	GGAAGCGCCAGCCAGCGCTCGCCGTTGTCACCTGTCACACCGGAGTCACCTAGTGCAG	3480 fluorescence intensity (a.u.)
11	TAAGGTACATCCATATGTTGTTCTTTTAATTTCTACGTGTCGGAGTCACCTAGTGCAG	3320 fluorescence intensity (a.u.)

The list continues.

Row | Sequence | binding signal
22 | GAGCTGCGGCGCGCTGCTCGCTAGGCTGATGAAGCACAAGCGGAGTCACCTAGTGCAG | 28100 fluorescence intensity (a.u.)
23 | GGTGAGAGACCTTTCCTGAAACCAGCAGAGGGAGCTTTGCCGGAGTCACCTAGTGCAG | 3250 fluorescence intensity (a.u.)
24 | GCACCCCTCTGACGTGGTCACTGACAGGTGGGCCCGAGAGCGGAGTCACCTAGTGCAG | 13100 fluorescence intensity (a.u.)
25 | GCTCTCATCAACTCGACTCGACCGGTAATCGATCGCGACTCGGAGTCACCTAGTGCAG | 34800 fluorescence intensity (a.u.)
26 | AAAGAGGAGGAATCTTGGGCCGCTGTAATCTTTCCTTCGACGGAGTCACCTAGTGCAG | 3730 fluorescence intensity (a.u.)
27 | ATCCGAATGGCGTACGCAGATATATATGTCCAGCGCGGAACGGAGTCACCTAGTGCAG | 3350 fluorescence intensity (a.u.)
28 | CCGGCCACATGACCATAGAGCTCGAGTGGTGAGTGCGGACCGGAGTCACCTAGTGCAG | 3150 fluorescence intensity (a.u.)
29 | CACGTCATCTTCCCCTTTCACTCGCTCACCACCACCGCGGCGGAGTCACCTAGTGCAG | 27800 fluorescence intensity (a.u.)
30 | TAAATCGATCCTACGTCACATGACAGACTGGACCCTTGTCCGGAGTCACCTAGTGCAG | 10900 fluorescence intensity (a.u.)
31 | CCTCTGCAGGATCCTGCAGTGCCGACGCAGCATGGAGCCACGGAGTCACCTAGTGCAG | 3210 fluorescence intensity (a.u.)
32 | AGTAGTAGAGAGGAGGAGAGATTGCGTGGGGATAGCAGAACGGAGTCACCTAGTGCAG | 3910 fluorescence intensity (a.u.)
33 | GATATATCCACATCAGCGTGCATACAAGTGTGTCAAAGCTCGGAGTCACCTAGTGCAG | 8160 fluorescence intensity (a.u.)
34 | TCGTTCAGGTTCGCCCCGTCCAGCCACCCGCCGCCGCCGCCGGAGTCACCTAGTGCAG | 13700 fluorescence intensity (a.u.)
35 | GGTGGTGGTGGTGGTGGTGTTGTTGCTGCTGCTACTACTCCGGAGTCACCTAGTGCAG | 3870 fluorescence intensity (a.u.)
36 | GACCCCATGTTCTTGTCTCCTCATGACACACTGGCCATGTCGGAGTCACCTAGTGCAG | 3260 fluorescence intensity (a.u.)
37 | CACATTTAATTCAAATTTCTGTTCGTCTTACAGTCAGCTACGGAGTCACCTAGTGCAG | 3490 fluorescence intensity (a.u.)
38 | CCTCCTGGCCCCACGCGCCCCACGCCACCTTGATACTCGCCGGAGTCACCTAGTGCAG | 3660 fluorescence intensity (a.u.)
39 | CATCATGGCCAGAAAACAATTAGCTCCTCGGCCCACGTGGCGGAGTCACCTAGTGCAG | 7600 fluorescence intensity (a.u.)
40 | CGGATCCATCAAGGTTGTTGATTCAAGCCTATGTGCAGTGCGGAGTCACCTAGTGCAG | 4020 fluorescence intensity (a.u.)
41 | AACCCCGTCAACATCGAGCGTCTCCAGGTAAGACGTCGCGCGGAGTCACCTAGTGCAG | 3380 fluorescence intensity (a.u.)
42 | AAGCACTCCAAACTGCAACGATTATATCAATAAAATAAAACGGAGTCACCTAGTGCAG | 39000 fluorescence intensity (a.u.)
